Measurements published in PubChem BioAssay AID504444 (National Center for Advancing Translational Sciences (NCATS), 2011).
About 7,500 (2.1%) of roughly 360,000 compounds were called active. Inconclusive means that the source gave no clear call. Such entries were picked first, then a sample of the others. Calls come from the whole dose curve; as a rule, active = well fitted inhibition curve with a large enough effect; inconclusive = small, poorly fitted or top-dose-only effect, or effect the other way; inactive = flat fitted curve, though single readings scatter. Potencies beside an inconclusive call are fits to weak or partial responses and may not hold up.

Assay: Nrf2 qHTS screen for inhibitors; note: nearly all actives have a fitted effect of over 60% in size
Conditions: A549 ARE-Fluc reporter, luciferase luminescence, 18-24 h; activity change, negative = inhibition: at 46 µM (top of the series)
Outline: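 A549 ARE_Fluc cells, 5000/well, 5% FBS OPTI-MEM; compounds in dose-response, 18-24 h at 37 °C/5% CO2; CellTiter-Fluor viability read (Ex 405/Em 525), then BugLite luciferase luminescence = Nrf2 activity.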
% is set by controls: 0 for no effect and ±100 for the full control effect; potency is the fitted concentration of half-maximal effect.

Compound | Potency | activity change, negative = inhibition
CC(c1ccccc1)N1C(=O)/C(=C/c2ccncc2)SC1=S (configuration not stated) | inconclusive: 20.6 µM [falling, single point] | 
Cc1cc(NCCCO)n2c(nc3ccccc32)c1C#N |  | inactive: 27.8%
Cc1cccc(NC(=O)CN2C(=O)c3cccnc3Oc3ccc(Cl)cc32)c1C | inconclusive: 23.1 µM [falling, single point] | 
CCCNC(=O)C(=O)Nc1cc2c3c(c1)CCC(=O)N3CCC2 | inconclusive: 29.1 µM [falling, single point] | 
COc1ccc(-c2ccc(C3C4C=CCC(C)C4C(=O)N3Cc3ccccc3)c(F)c2)cc1 (configuration not stated) | inconclusive: 29.1 µM [falling, single point] | 
Nc1nnc(SCC(=O)OCC(=O)NC2CCCCC2)s1 | inconclusive: 4.11 µM [activator, full curve, poor fit] | 
CSc1ccc(CCNC(=O)CCCn2nc(C)c3sc4ccccc4c3c2=O)cc1 | inconclusive: 10.3 µM [activator, partial curve] | 
S=c1[nH]nc(Cn2c(-c3ccccn3)nc3ccccc32)n1-c1ccc2c(c1)OCCO2 |  | inactive: 3.25%
Cc1cc(C)n(-c2ccc(C(=O)NC(C)C)cc2)n1 | inconclusive: 2.06 µM [falling, full curve, poor fit] | 
COc1ccc(-c2noc(C3CCCN(C(=O)c4ccccc4C)C3)n2)cc1 (configuration not stated) | inconclusive: 29.1 µM [falling, single point] | 
COCCn1c(COc2ccc(OC)cc2)nc2ccccc21 |  | inactive: 10.4%
CC(C)(C)S(=O)N1Cc2cc(=O)n(Cc3ccccc3)c(CCO)c2[C@@H]1CCO (some centres not stated) |  | inactive: 0.129%
c1ccc(N2CCN(c3cnc4ccccc4n3)CC2)cc1 | inconclusive: 10.3 µM [activator, partial curve, poor fit] | 
Cc1nc(SCC(=O)Nc2ccccn2)n[nH]1 |  | inactive: 12.1%
Cc1nn(-c2nc(-c3ccc(F)cc3)cc(C(F)(F)F)n2)c(C)c1Br | inconclusive: 14.6 µM [falling, single point] | 
CC1=CC2(O)OCCN(CCO)C2=CC1=O (configuration not stated) | inconclusive: 7.31 µM [falling, partial curve, poor fit] | 
O=C(c1cc2cc(F)ccc2[nH]1)N1CCCC(Nc2ccc(F)cc2)C1 (configuration not stated) | inconclusive: 16.4 µM [falling, single point] | 
O=C(Cc1n[nH]c(=O)c2ccccc12)N/N=C/c1cc2c(cc1Cl)OCO2 | inconclusive: 29.1 µM [falling, single point] | 
COc1cccc(OCC(=O)Nc2cc(Cl)ccc2Oc2ccccc2)c1 |  | inactive: -16.1%
COc1ccc(OC)c(Cc2nnc(CCC(=O)N3CCN(C4CCCC4)CC3)o2)c1 | inconclusive: 20.6 µM [activator, single point] | 
CCC(=O)Oc1ccc(C/C(=N\O)c2ccc(O)cc2O)o1 | inconclusive: 20.6 µM [falling, single point] | 
Cc1ccc(Sc2c(C(=O)Nc3ccc(F)cc3F)c(C(F)(F)F)nn2C)cc1 | inconclusive: 18.4 µM [falling, partial curve, poor fit] | 
CCCn1c(/C=C/c2ccco2)nc2ccccc21 | inconclusive: 29.1 µM [activator, single point] | 

One compound at a time (already shown):
CC(c1ccccc1)N1C(=O)/C(=C/c2ccncc2)SC1=S (configuration not stated) as listed: Potency: inconclusive: 20.6 µM [falling, single point]
Nc1nnc(SCC(=O)OCC(=O)NC2CCCCC2)s1 as listed: Potency: inconclusive: 4.11 µM [activator, full curve, poor fit]
COc1ccc(-c2noc(C3CCCN(C(=O)c4ccccc4C)C3)n2)cc1 (configuration not stated) as listed: Potency: inconclusive: 29.1 µM [falling, single point]
CC1=CC2(O)OCCN(CCO)C2=CC1=O (configuration not stated) as listed: Potency: inconclusive: 7.31 µM [falling, partial curve, poor fit]

Next compounds

Compound | Potency | activity change, negative = inhibition
CN1CCN(c2ccc(-c3cccc(NC(=O)COc4ccc(Cl)cc4)c3)nn2)CC1 | inconclusive: 2.59 µM [activator, full curve] | 
COc1ccccc1OCCCCCc1c(C)n[nH]c1C | inconclusive: 29.1 µM [falling, single point] | 
CS(=O)(=O)c1ccc2nc(NC(=O)CCNC(=O)c3ccc(Cl)cc3)sc2c1 | inconclusive: 10.3 µM [activator, partial curve] | 
O=C(NCCCCCCNC(=O)c1ccc(Br)s1)c1ccc(Br)s1 | inconclusive: 29.1 µM [falling, single point] | 
CC1=C(c2ccc(C)c(C)c2)S(=O)(=O)N=C1N1CCC(C(=O)NCCc2ccco2)CC1 |  | inactive: 22.5%
O=C(Nc1cnn(Cc2ccc(Cl)c(Cl)c2)c1)c1nc2ncccn2n1 | inconclusive: 32.6 µM [falling, partial curve, poor fit] | 
O=NNc1nc2ccccc2n1Cc1ccccc1 | active: 6.51 µM | 
CS(=O)(=O)N1CCc2cc(C(=O)NCCc3ccccc3)ccc21 | inconclusive: 3.26 µM [activator, full curve] | 
CCOc1ccc(NC(=S)N(CCc2c(C)[nH]c3ccccc23)Cc2cccnc2)cc1 |  | inactive: -2.41%
COc1cc(/C=C2/SC(=O)NC2=O)ccc1Oc1ccc([N+](=O)[O-])cc1[N+](=O)[O-] | inconclusive: 0.58 µM [falling, full curve, poor fit] | 
Cc1ccc(-c2cc(C(=O)N3CCN(S(=O)(=O)c4ccc(Br)cc4)CC3)[nH]n2)cc1C |  | inactive: -13.8%
CCc1ccc(Nc2n[n+](-c3ccccc3)c(-c3ccc(OCc4ccccc4)cc3)s2)cc1 | inconclusive: 16.4 µM [falling, single point] | 
COc1ccc(NS(=O)(=O)c2cc(NC(=O)COc3ccccc3F)ccc2OC)cc1 | inconclusive: 25.9 µM [falling, single point] | 
O=C(Cc1c(F)cccc1Cl)Nc1ccccc1N1CCCCC1 | inconclusive: 29.1 µM [falling, single point] | 
O=C(Nc1ccc2oc(Cc3ccc(Cl)cc3)nc2c1)c1cccnc1 | inconclusive: 23.1 µM [falling, partial curve, poor fit] | 
CN1C(=O)[C@H](Cc2ccc([N+](=O)[O-])cc2)NC1=S | inconclusive: 14.6 µM [falling, single point] | 
CCn1c(CSc2nc(C)cc(C)n2)nnc1SCC(=O)Nc1cccc2ccccc12 |  | inactive: -6.01%
CCCCn1c(CN2CCN(c3ccccc3)CC2)nc2c1c(=O)n(C)c(=O)n2C | active: 4.11 µM | 
S=C(NCc1cccc(Cl)c1)NC1CCCCC1 | inconclusive: 29.1 µM [falling, single point] | 
O=C(Nc1nc(-c2cc3ccccc3o2)cs1)c1ccc(S(=O)(=O)N2CCCC2)cc1 | active: 4.11 µM | 
COCCCNC(=O)CN1C(=O)COc2ccc(S(=O)(=O)N3CCCC3)cc21 |  | inactive: 11.3%
CCN1CCN(c2ccc(NC(=O)c3cc4ccccc4cc3OC)cc2C)CC1 | inconclusive: 9.2 µM [activator, partial curve] | 
O=C(NNc1nc(-c2ccccc2)cs1)c1ccc(F)cc1 |  | inactive: 1.17%

Compound | Potency | activity change, negative = inhibition
COc1ccccc1N(CCC#N)C(=O)CSc1ccc2c(c1)OCCO2 | inconclusive: 1.84 µM [falling, partial curve] | 
Cc1cc(C)c2c(CN3CCCCC3C)cc(=O)oc2c1 (configuration not stated) |  | inactive: 2.7%
CCC(=O)Nc1c(S(=O)(=O)c2ccccc2)c2nc3ccccc3nc2n1Cc1ccccc1 | active: 14.6 µM | 
Cc1ccc(CNC(=O)C2CCC(=O)N2CCc2ccccc2)cc1 (configuration not stated) |  | inactive: 5.41%
Cn1c(SCCCC(=O)c2ccc(Br)cc2)nnc1-c1ccncc1 | inconclusive: 32.6 µM [falling, partial curve, poor fit] | 
O=C(O)COc1ccc2c(c1)O/C(=C\c1ccco1)C2=O |  | inactive: 10.9%
COc1cc(/C=C(\C#N)C(=O)NCC2CCCO2)ccc1OCC(=O)O (configuration not stated) | inconclusive: 4.61 µM [falling, partial curve, poor fit] | 
Cc1ccc(NS(=O)(=O)c2ccc3c(c2)CCC(=O)N3)cc1F |  | inactive: -12.8%
CCn1c(SCC(=O)N(Cc2ccccc2)C2CCS(=O)(=O)C2)nc2ccccc2c1=O (configuration not stated) | inconclusive: 0.231 µM [falling, full curve, poor fit] | 
O=C(NCc1ccco1)C(Cc1ccccc1)N1C(=O)c2ccccc2C1=O (configuration not stated) | inconclusive: 0.164 µM [activator, full curve, poor fit] | 
O=C(NNC(=O)c1ccccc1[N+](=O)[O-])c1ccccn1 | inconclusive: 18.4 µM [falling, single point] | 
CCOC(=O)c1oc2ccc(/C=N/O)c(Cl)c2c1C | inconclusive: 10.3 µM [activator, partial curve] | 
COc1ccc(N2CCN(C(=O)CCc3c(C)nc4cc(-c5ccc(Cl)cc5)nn4c3C)CC2)cc1 | inconclusive: 1.16 µM [falling, full curve] | 
Cc1nc(N2CCN(c3ccccn3)CC2)c2c(C)c(C(=O)N3CCN(c4cccc(Cl)c4)CC3)sc2n1 | inconclusive: 11.6 µM [falling, partial curve, poor fit] | 
CC(=O)COc1nc2c(c(-c3ccco3)c1C#N)CCc1ccccc1-2 | inconclusive: 20.6 µM [falling, single point] | 
COc1cc(Cl)c(C)cc1NC(=O)c1ccccc1NC(=O)CN1CCN(c2ccccn2)CC1 | inconclusive: 29.1 µM [falling, single point] | 
CCOc1ccc(NCc2cccn2-c2nnc(N3CCC(C(=O)NCCc4ccc(OC)c(OC)c4)CC3)s2)cc1 | inconclusive: 16.4 µM [falling, single point] | 
O=c1cc(S(=O)(=O)Cc2ccccc2)[nH]c(=O)[nH]1 | inconclusive: 16.4 µM [activator, partial curve, poor fit] | 
COc1ccc(C(C#N)c2nc3ccccc3nc2Cl)cc1 (configuration not stated) | inconclusive: 32.6 µM [falling, partial curve, poor fit] | 
FC(F)Sc1ccc(NC(=S)NCc2ccccc2)cc1 | inconclusive: 18.4 µM [falling, single point] | 
O=C(CSc1nnc(-c2cccnc2)n1Cc1ccco1)Nc1nc(-c2ccc(F)cc2)cs1 | inconclusive: 20.6 µM [falling, single point] | 
